Measured values reported in patent publication US20070185089A1, “Benzazepine derivatives for the treatment of neurological and psychiatric disorders” (Glaxo Group Limited, priority 2004, published 2007).
Several values for one entry are separate records, joined by “and”; a condition that tells them apart may be missing. Identical values can stand only once. Some entries share one result that the patent states for a list of compounds. At least one compound was matched to its structure with a doubt left.

By UniProt entry, the sequences of proteins in these tests, tags left out. Where a name states a change or a piece, a line headed by the entry shows the natural chain unless it says otherwise.
UniProt P35367, whole entry: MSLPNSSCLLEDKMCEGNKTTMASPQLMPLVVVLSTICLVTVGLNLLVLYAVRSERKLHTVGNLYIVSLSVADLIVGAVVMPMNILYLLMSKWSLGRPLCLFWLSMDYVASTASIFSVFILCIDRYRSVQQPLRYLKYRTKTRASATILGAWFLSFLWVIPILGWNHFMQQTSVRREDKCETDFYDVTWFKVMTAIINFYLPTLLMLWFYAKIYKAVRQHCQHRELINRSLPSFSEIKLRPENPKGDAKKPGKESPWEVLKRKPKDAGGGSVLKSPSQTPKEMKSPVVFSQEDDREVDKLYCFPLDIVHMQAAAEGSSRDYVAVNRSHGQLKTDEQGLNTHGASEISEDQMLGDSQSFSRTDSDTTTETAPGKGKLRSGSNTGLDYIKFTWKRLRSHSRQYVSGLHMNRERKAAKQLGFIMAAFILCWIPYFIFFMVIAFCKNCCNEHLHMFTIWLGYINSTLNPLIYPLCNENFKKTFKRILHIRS
UniProt Q9Y5N1: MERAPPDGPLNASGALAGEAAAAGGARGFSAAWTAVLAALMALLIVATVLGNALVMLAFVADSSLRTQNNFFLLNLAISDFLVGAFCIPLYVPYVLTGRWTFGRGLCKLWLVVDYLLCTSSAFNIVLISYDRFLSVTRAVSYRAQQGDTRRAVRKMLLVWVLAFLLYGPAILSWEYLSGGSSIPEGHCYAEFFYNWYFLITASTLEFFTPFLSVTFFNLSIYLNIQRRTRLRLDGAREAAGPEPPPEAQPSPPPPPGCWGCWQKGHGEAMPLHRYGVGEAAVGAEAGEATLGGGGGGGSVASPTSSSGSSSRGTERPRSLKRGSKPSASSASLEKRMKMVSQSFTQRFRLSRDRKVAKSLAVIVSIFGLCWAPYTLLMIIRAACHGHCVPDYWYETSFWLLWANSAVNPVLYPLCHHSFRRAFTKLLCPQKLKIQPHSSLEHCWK

How the values were obtained:
[1] = target: T1, human H1 receptor (Homo sapiens, UniProt P35367); experiment: Histamine H1 functional antagonist assay (FLIPR, cell fluorescence); type: cell-based; conditions: CHO cells expressing human H1 receptor, histamine at EC80
T1 construct: expressed in transfected cells

[2] = target: T2, histamine H3 receptor (Homo sapiens, UniProt Q9Y5N1); experiment: Histamine H3 functional antagonist assay (method A), [35S]-GTPγS SPA on membranes; type: biochemical
T2 construct: expressed in transfected cells; host or cells: CHO K1 cells carrying pSwitch, transfected with pGeneH3; mifepristone-induced; clone 3H3; membranes

| Compound | antagonism in the histamine H1 functional antagonist assay [1] | antagonism in the histamine H3 functional antagonist assay (method A) ([2]; histamine at EC80) | antagonism in the histamine H3 functional antagonist assay (method A) ([2]; histamine at EC80, trifluoroacetate salt) |
| --- | --- | --- | --- |
| N#Cc1cccc(C(=O)N2CCC(c3ccc4c(c3)CCN(C3CCC3)CC4)CC2)c1 [Example E208, 3-{[4-(3-cyclobutyl-2,3,4,5-tetrahydro-1H-3-benzazepin-7-yl)-1-piperidinyl]carbonyl}benzonitrile] | < 6.3 pKb | > 9.0 pKb and > 6.5 pKb | – |
| CNC(=O)c1cnc(N2CCC(c3ccc4c(c3)CCN(C3CCCC3)CC4)CC2)cn1 [Example E233, 5-[4-(3-Cyclopentyl-2,3,4,5-tetrahydro-1H-3-benzazepin-7-yl)-1-piperidinyl]-N-methyl-2-pyrazinecarboxamide] | < 6.3 pKb | > 9.0 pKb and > 6.5 pKb | – |
| O=S(=O)(c1ccc(Cl)cc1)N1CCN(c2ccc3c(c2)CCN(C2CCCC2)CC3)CC1 [Example E42, 7-{4-[(4-Chlorophenyl)sulfonyl]-1-piperazinyl}-3-cyclopentyl-2,3,4,5-tetrahydro-1H-3-benzazepine] | < 6.3 pKb | > 6.5 pKb | – |
| N#Cc1ccc(C(=O)N2CCC(c3ccc4c(c3)CCN(C3CCCC3)CC4)CC2)cc1 [Example E236, 4-{[4-(3-cyclopentyl-2,3,4,5-tetrahydro-1H-3-benzazepin-7-yl)-1-piperidinyl]carbonyl}benzonitrile] | < 6.3 pKb | > 9.0 pKb and > 6.5 pKb | – |
| CC(C)C(Cc1ccccc1)C(=O)N1CCN(c2ccc3c(c2)CCN(C2CCCC2)CC3)CC1.O=C(O)C(F)(F)F (stereo not drawn) [Example E142, 3-Cyclopentyl-7-{4-[3-methyl-2-(phenylmethyl)butanoyl]-1-piperazinyl}-2,3,4,5-tetrahydro-1H-3-benzazepine trifluoroacetate salt] | < 6.3 pKb | – | > 9.0 pKb and > 6.5 pKb |
| N#Cc1ccc(S(=O)(=O)N2CCN(c3ccc4c(c3)CCN(C3CCCC3)CC4)CC2)cc1 [Example E21, 4-{[4-(3-Cyclopentyl-2,3,4,5-tetrahydro-1H-3-benzazepin-7-yl)-1-piperazinyl]sulfonyl}benzonitrile] | < 6.3 pKb | > 6.5 pKb | – |
| O=C(N1CCOCC1)N1CCN(c2ccc3c(c2)CCN(C2CCC2)CC3)CC1 [Example E9, 3-Cyclobutyl-7-[4-(4-morpholinylcarbonyl)-1-piperazinyl]-2,3,4,5-tetrahydro-1H-3-benzazepine] | < 6.3 pKb | > 6.5 pKb | – |
| CNC(=O)c1ccc(N2CCC(c3ccc4c(c3)CCN(C3CCC3)CC4)CC2)nc1 [Example E225, 6-[4-(3-cyclobutyl-2,3,4,5-tetrahydro-1H-3-benzazepin-7-yl)-1-piperidinyl]-N-methyl-3-pyridinecarboxamide] | < 6.3 pKb | > 9.0 pKb and > 6.5 pKb | – |
| N#Cc1ccc(C(=O)N2CCC(c3ccc4c(c3)CCN(C3CCC3)CC4)CC2)cc1 [Example E192, 4-{[4-(3-Cyclobutyl-2,3,4,5-tetrahydro-1H-3-benzazepin-7-yl)-1-piperidinyl]carbonyl}benzonitrile] | < 6.3 pKb | > 9.0 pKb and > 6.5 pKb | – |
| CC(C)S(=O)(=O)N1CCN(c2ccc3c(c2)CCN(C2CCCC2)CC3)CC1 [Example E40, 3-Cyclopentyl-7-{4-[(1-methylethyl)sulfonyl]-1-piperazinyl}-2,3,4,5-tetrahydro-1H-3-benzazepine] | < 6.3 pKb | > 6.5 pKb | – |
| N#Cc1ccc(C(=O)N2CCN(c3ccc4c(c3)CCN(C3CCCC3)CC4)CC2)cc1 [Example E91, 4-{[4-(3-Cyclopentyl-2,3,4,5-tetrahydro-1H-3-benzazepin-7-yl)-1-piperazinyl]carbonyl}benzonitrile] | < 6.3 pKb | > 9.0 pKb and > 6.5 pKb | – |
| CC(=O)Nc1nc(C)c(S(=O)(=O)N2CCN(c3ccc4c(c3)CCN(C3CCCC3)CC4)CC2)s1 [Example E67, N-(5-{[4-(3-Cyclopentyl-2,3,4,5-tetrahydro-1H-3-benzazepin-7-yl)-1-piperazinyl]sulfonyl}-4-methyl-1,3-thiazol-2-yl)acetamide] | < 6.3 pKb | > 6.5 pKb | – |
| O=C(N1CCC(c2ccc3c(c2)CCN(C2CCC2)CC3)CC1)N1Cc2ccccc2C1 [Example E243, 3-Cyclobutyl-7-[1-(1,3-dihydro-2H-isoindol-2-ylcarbonyl)-4-piperidinyl]-2,3,4,5-tetrahydro-1H-3-benzazepine] | < 6.3 pKb | > 9.0 pKb and > 6.5 pKb | – |
| CNC(=O)c1ccc(-c2ccc3c(c2)CCN(C2CCC2)CC3)cc1 [Example E195, 4-(3-Cyclobutyl-2,3,4,5-tetrahydro-1H-3-benzazepin-7-yl)-N-methylbenzamide] | < 6.3 pKb | > 6.5 pKb | – |
| O=C(c1ccc(-c2cccnc2)cc1)N1CCN(c2ccc3c(c2)CCN(C2CCC2)CC3)CC1 [Example E17, 3-Cyclobutyl-7-(4-{[4-(3-pyridinyl)phenyl]carbonyl}-1-piperazinyl)-2,3,4,5-tetrahydro-1H-3-benzazepine] | < 6.3 pKb | > 9.0 pKb and > 6.5 pKb | – |
| N#Cc1cccc(N2CCN(c3ccc4c(c3)CCN(C3CCC3)CC4)CC2)c1 [Example E1, 3-[4-(3-Cyclobutyl-2,3,4,5-tetrahydro-1H-3-benzazepin-7-yl)-1-piperazinyl]benzonitrile] | < 6.3 pKb | > 6.5 pKb and > 9.0 pKb | – |
| Cc1cc(S(=O)(=O)N2CCN(c3ccc4c(c3)CCN(C3CCCC3)CC4)CC2)cc(C)c1C [Example E90, 3-Cyclopentyl-7-{4-[(3,4,5-trimethylphenyl)sulfonyl]-1-piperazinyl}-2,3,4,5-tetrahydro-1H-3-benzazepine] | < 6.3 pKb | > 6.5 pKb | – |
| COc1ccc(NC(=O)N2CCC(c3ccc4c(c3)CCN(C3CCC3)CC4)CC2)cc1 [Example E241, 4-(3-Cyclobutyl-2,3,4,5-tetrahydro-1H-3-benzazepin-7-yl)-N-[4-(methyloxy)phenyl]-1-piperidinecarboxamide] | < 6.3 pKb | > 6.5 pKb | – |
| O=S(=O)(c1ccccc1Cl)N1CCN(c2ccc3c(c2)CCN(C2CCCC2)CC3)CC1 [Example E43, 7-{4-[(2-Chlorophenyl)sulfonyl]-1-piperazinyl}-3-cyclopentyl-2,3,4,5-tetrahydro-1H-3-benzazepine] | < 6.3 pKb | > 9.0 pKb and > 6.5 pKb | – |
| O=S(=O)(c1ccc2c(c1)CCO2)N1CCN(c2ccc3c(c2)CCN(C2CCCC2)CC3)CC1 [Example E77, 3-Cyclopentyl-7-[4-(2,3-dihydro-1-benzofuran-5-ylsulfonyl)-1-piperazinyl]-2,3,4,5-tetrahydro-1H-3-benzazepine] | < 6.3 pKb | > 6.5 pKb | – |
| O=C(c1ccccc1Cl)N1CCN(c2ccc3c(c2)CCN(C2CCC2)CC3)CC1 [Example E4, 7-{4-[(2-Chlorophenyl)carbonyl]-1-piperazinyl}-3-cyclobutyl-2,3,4,5-tetrahydro-1H-3-benzazepine] | < 6.3 pKb | > 9.0 pKb and > 6.5 pKb | – |
| CCc1ccc(NC(=O)N2CCN(c3ccc4c(c3)CCN(C3CCC3)CC4)CC2)cc1 [Example E14, 4-(3-Cyclobutyl-2,3,4,5-tetrahydro-1H-3-benzazepin-7-yl)-N-(4-ethylphenyl)-1-piperazinecarboxamide] | < 6.3 pKb | > 9.0 pKb and > 6.5 pKb | – |
| Cc1ccc(F)cc1S(=O)(=O)N1CCN(c2ccc3c(c2)CCN(C2CCCC2)CC3)CC1 [Example E82] | < 6.3 pKb | > 6.5 pKb | – |
| O=C(c1ccncc1)N1CCN(c2ccc3c(c2)CCN(C2CCCC2)CC3)CC1 [Example E92, 3-Cyclopentyl-7-[4-(4-pyridinylcarbonyl)-1-piperazinyl]-2,3,4,5-tetrahydro-1H-3-benzazepine] | < 6.3 pKb | > 6.5 pKb | – |
| O=S(=O)(c1cccc2cccnc12)N1CCN(c2ccc3c(c2)CCN(C2CCCC2)CC3)CC1 [Example E29, 3-Cyclopentyl-7-[4-(8-quinolinylsulfonyl)-1-piperazinyl]-2,3,4,5-tetrahydro-1H-3-benzazepine] | < 6.3 pKb | > 9.0 pKb and > 6.5 pKb | – |
| O=C(c1ccc(C(F)(F)F)nc1)N1CCC(c2ccc3c(c2)CCN(C2CCC2)CC3)CC1 [Example E212, 3-cyclobutyl-7-(1-{[6-(trifluoromethyl)-3-pyridinyl]carbonyl}-4-piperidinyl)-2,3,4,5-tetrahydro-1H-3-benzazepine] | < 6.3 pKb | > 9.0 pKb and > 6.5 pKb | – |
| O=S(=O)(c1ccc(Cl)c(Cl)c1)N1CCN(c2ccc3c(c2)CCN(C2CCCC2)CC3)CC1 [Example E19, 3-Cyclopentyl-7-{4-[(3,4-dichlorophenyl)sulfonyl]-1-piperazinyl}-2,3,4,5-tetrahydro-1H-3-benzazepine] | < 6.3 pKb | > 6.5 pKb | – |
